# Assay results as given in PubChem BioAssay AID1259415 (National Center for Advancing Translational Sciences (NCATS), 2018).
# Among all 410,000 compounds or so, about 18,000 (4.4%) were called active. This list was built around the results that the source calls inconclusive (neither active nor inactive); the mix of calls is not that of the screen. No stated cut-off is given here; in the data, active means activity change below about -60%; inconclusive means no clear call, values can overlap the other calls; inactive means above about -39%.
# Assay: qHTS Assay for inhibitors of the human cytomegalovirus (HCMV)
# Conditions: HFF cells, HCMV-luciferase reporter, 72 h; at 57.5 µM; hits give low values
# In short: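 Screen run at 2 compound doses on HFFs infected with reporter HCMV, MOI 1 PFU/cell. Luciferase activity from cell lysates at 72 h post infection gave inhibition relative to buffer-only and Salinomycin wells.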
# On the % scale 0 is the no-effect control and ±100 the full control effect.
row,SMILES,"activity change, negative = inhibition"
1,COc1cccc(N(C(=O)c2snc(C(N)=O)c2N)C(C(=O)NCC2CCCO2)c2cccs2)c1 (configuration not stated),inconclusive: -46.8%
2,CN(C(=O)c1ccc(OC2CCN(CCc3ccccc3)CC2)cc1)C1CCOCC1,inconclusive: -43%
3,COc1ccc2sc(C)[n+](C)c2c1,inconclusive: -42.4%
4,CN(CC(=O)NCc1ccc(Cl)cc1)S(=O)(=O)c1cccc2cccnc12,inactive: -33.4%
5,Cc1cc(C)n(-c2ccc(C(=O)OCC(=O)NC(c3ccccc3)c3ccccc3)cc2)n1,inconclusive: -52.3%
6,COc1ccc(-c2nnc(SCC(=O)Nc3cccc(F)c3)s2)cc1,inactive: 27.2%
7,O=[N+]([O-])c1ccccc1S(=O)(=O)N/C(=N/S(=O)(=O)c1ccccc1)c1ccccc1,inactive: 5.19%
8,COc1ccc(NC(=O)[C@H](C)NS(=O)(=O)c2ccc(NC(C)=O)cc2)cc1Cl,inconclusive: -42.5%
9,COc1ccccc1/C=C/C1(C(=O)NC2CCCC2)CC(=O)N1c1ccc(C)cc1 (configuration not stated),active: -98.4%
10,CCCCCCOc1ccc(OC(=O)c2cccnc2)cc1,active: -79.3%
11,COC(=O)/C=C1/N/C(=N\c2nc(C)cc(C)n2)N(c2cccc(C)c2)C1=O,inconclusive: -42.4%
12,CCOC(=O)c1ccc(NC(=S)N(CCN(C)C)Cc2cccs2)cc1,active: -61.2%
13,CC(Cc1ccccc1)N1C(=O)c2ccccc2C1=O (configuration not stated),inactive: -29.2%
14,O=C1NC(c2ccc(-c3ccccc3[N+](=O)[O-])o2)C(C(=O)c2ccc(F)cc2)C(O)(C(F)(F)F)N1 (configuration not stated),inconclusive: -46.4%
15,Cc1ccc(S(=O)(=O)N2CCOCC2)cc1C(=O)OCCOc1cccc(Cl)c1,inconclusive: -41.1%
16,COc1cc(CN2CCC(n3nccc3NC(=O)C3CCOC3)CC2)ccc1F (configuration not stated),inconclusive: -47.5%
17,COCCCNC(=O)CN(c1cc(Cl)ccc1OC)S(C)(=O)=O,inactive: -7.97%
18,CCOC(=O)c1cccc(NC(=O)C2CCCN(S(=O)(=O)c3cnc[nH]3)C2)c1 (configuration not stated),active: -78.2%
19,Cc1cc(=O)c2cc(C(=O)c3ccccc3)ccc2[nH]1,inconclusive: -48.6%
20,CCc1ccc(NC(=O)CC2C(=O)N(c3cccc(C)c3)C(=O)N2Cc2cccs2)cc1 (configuration not stated),inconclusive: -47.9%
21,O=C(Cn1cnc2c(oc3ccccc32)c1=O)NCc1ccco1,inconclusive: -42.4%
22,Oc1c(Br)cc(Br)cc1/C=N/Nc1ccc(Cl)nn1,active: -96.8%

row,SMILES,"activity change, negative = inhibition"
1,CN(C)CCN(C(=O)/C=C/c1cccs1)c1nc2c(F)cc(F)cc2s1,inconclusive: -52.9%
2,NC(=O)CSc1nc2c(oc3ccccc32)c(=O)n1-c1ccccc1F,inactive: -5.49%
3,CCc1c(C#N)sc(C(N)=O)c1CC,active: -73.9%
4,CCNC(=O)/C(C#N)=C/c1c(N2CCN(C)CC2)nc2c(C)cccn2c1=O,inconclusive: -44.8%
5,Cc1sc2c(c1C)C(=O)/C(=C\Nc1ccncc1)S(=O)(=O)N2C,inconclusive: -48.8%
6,CSc1ccccc1C(=O)C1CCCN(C(=O)c2cc(C(C)C)no2)C1 (configuration not stated),inactive: -6.96%
7,CCCCNC(=O)C1CCN(Cc2ccc(OCc3ccccc3)c(OC)c2)CC1,inactive: 141%
8,N#Cc1c(N)[nH]c2ccc(Sc3ccccc3)cc12,inconclusive: -56.2%
9,CCOC(=O)[C@@H]1[C@H]2COc3ccc(Br)cc3[C@H]2N2C(=O)N(c3cccc(Cl)c3)C(=O)[C@]12C,inactive: -9.75%
10,Cc1ccc(NC(=O)Cn2nnnc2-c2ccccc2N)cc1,inactive: 8.62%
11,Cn1nc(C(=O)N2CCN(c3ccc(Cl)cc3)CC2)c2c1-c1ccccc1SC2,active: -71.2%
12,COc1ccc([C@H]2C[C@@H](n3cc(COC(=O)c4ccccc4)nn3)[C@H](O)CN2Cc2cccs2)cc1,inactive: -12.1%
13,COc1ccc(Cl)cc1-c1cc(C(=O)Nc2ccc(C)c(NS(C)(=O)=O)c2)[nH]n1,inconclusive: -43.4%
14,CCOc1ccc2nc(N3CCN(C(=O)CS(=O)(=O)c4ccc(F)cc4)CC3)sc2c1,inconclusive: -42.8%
15,Cc1ccc(NC(=S)NC2CCSc3ccccc32)cc1C (configuration not stated),inactive: -23.5%
16,CCn1c(C(=O)N2CCC(C(=O)N3CCN(c4cccc(C)c4C)CC3)CC2)cc2sccc21,inconclusive: -45.8%
17,CC1(C)CC(=O)C(N=Nc2ccc(Br)cc2)=C(O)C1,active: -60.3%
18,O=c1c2ccccc2nc(-c2ccccc2Cl)n1-c1cccc(O)c1,inconclusive: -43.2%
19,COc1cc(C2SCC(=O)N2c2c(C)n(C)n(-c3ccccc3)c2=O)ccc1O (configuration not stated),inconclusive: -54.2%
20,COC(=O)c1sc(NC(=S)NNC(=O)c2c(Br)c(C)nn2C)c(C(=O)OC)c1C,inconclusive: -59.8%
21,O=C(Nc1ccc(F)c(Cl)c1)N1CCN(C(=O)c2nsc3ccccc23)CC1,inconclusive: -56%
22,CCN(CC)CC#CC(O)(c1ccccc1)c1ccccc1,inactive: -2.5%

row,SMILES,"activity change, negative = inhibition"
1,O=C(CN(c1ccc(Br)cc1)S(=O)(=O)c1ccc(Cl)c([N+](=O)[O-])c1)NCC1CCCO1 (configuration not stated),inactive: 0%
2,COc1cc(C=C2CCCC(=Cc3ccc(OCC4CO4)c(OC)c3)C2=O)ccc1OCC1CO1 (configuration not stated),active: -67.9%
3,CC(=O)N1CCN(c2ccc(Oc3ncnc4sccc34)cc2)CC1,active: -75.2%
4,COC(=O)c1ccccc1NC(=O)c1nc2nc(C)cc(C)n2n1,inconclusive: -43.5%
5,COc1ccc(CN(C(=O)c2snc(C(N)=O)c2N)C(CC(C)C)C(=O)NC2CCCCC2)cc1 (configuration not stated),inconclusive: -50.5%
6,CCOc1cc(C(N)=O)cc(Br)c1OCC,inconclusive: -53.3%
7,COc1ccc(NC(=O)c2cn(CCC#N)nc2-c2cccs2)cc1,inconclusive: -58.9%
8,C/C(=N\OCc1cccc(C(=O)O)c1)c1ccc(Cl)cc1,inactive: 74.3%
9,CCCCn1c(NCc2cccs2)nc2ccccc21,inactive: -27.6%
10,CCn1nc(C)c(NC(=O)c2cnn3c(C(F)F)cc(-c4ccccc4)nc23)c1C,inconclusive: -49.7%
11,Cc1ccc(-c2cc(C(F)F)n3ncc(C(=O)NN4CCCCC4)c3n2)cc1,inactive: 29.4%
12,CCOc1ccc(/C=N/NC(=S)NC2CC3C=CC2C3)cc1 (configuration not stated),inconclusive: -54.3%
13,CC(C)N(C(=O)COC(=O)c1cccc(C(=O)OCC(=O)N(C(C)C)C(C)C)n1)C(C)C,inconclusive: -42%
14,CCNS(=O)(=O)c1ccc(NC(=O)Nc2cc(C)ccc2OC)cc1,inactive: -15.1%
15,CCOC(=O)C1(Cc2cccc(OC)c2)CCN(Cc2ccccc2)CC1,inactive: 0.809%
16,Cc1cc([N+](=O)[O-])nn1CC(=O)Nc1ccc(Cl)cn1,active: -60.4%
17,CN(C(=O)c1ccccc1)C1c2c(ccc3ccccc23)OCC1CO (configuration not stated),inconclusive: -56.3%
18,Cc1ccc(S(=O)(=O)N(C)C)cc1NC(=S)N1CCN(Cc2ccc3c(c2)OCO3)CC1,inconclusive: -52.2%
19,CCOC(=O)N1CCN(C(=O)C2CCCN(c3ncnc4c3nc3n4CCCCC3)C2)CC1 (configuration not stated),inconclusive: -46%
20,CCCCc1c(-c2ccc(Cl)cc2)ncn1CCc1ccccc1OC,inconclusive: -56.6%
21,CCc1ccc(-n2nc3cc(C)c(NC(=O)c4cc(Cl)ccc4OC)cc3n2)cc1,inactive: 10.6%
22,CCOC(=O)N1CCN(C(C(=O)NC2CCCC2)c2ccco2)CC1 (configuration not stated),inconclusive: -46.4%

row,SMILES,"activity change, negative = inhibition"
1,Cc1ccc(NC(=O)c2ccc(NC(=O)N3CCSc4ncccc43)cc2)cc1Cl,inconclusive: 0%
2,O=C(Cn1cc(S(=O)(=O)Cc2ccc(F)cc2)c2ccccc21)NCCc1ccccc1,inconclusive: 0%
3,CCOC(=O)c1ccc(NC(=O)CCc2c(C)nc3c(c(C)nn3-c3ccccc3)c2C)cc1,inactive: -5.99%
4,O=C(NCCc1c[nH]c2ccccc12)c1cncc(Br)c1,inactive: 54.3%
5,COc1ccc(CCNc2cc(C)nc3c(-c4ccc(Cl)cc4)cnn23)cc1OC,inactive: 34.2%
6,CC(=O)c1c(O)cc2c3c1OC(C)(C)C1CCC(C)(CC31)O2 (configuration not stated),inconclusive: -46.6%
7,COc1cccc(C2=C(C(C)=O)Sc3nncn3N2C(C)=O)c1,inconclusive: -54.4%
8,COc1cc(CNc2ccc3[nH]c(=O)[nH]c3c2)ccc1OCc1ccccc1Cl,inconclusive: -54.1%
9,O=C(Cn1nnc(-c2ccccc2Cl)n1)N/N=C/c1ccc(-c2cccc(Cl)c2)o1,inconclusive: -53%
10,Cn1c(=O)c(C(=O)CSc2ccccc2)c(N)n(Cc2ccccc2)c1=O,inconclusive: -56.2%
11,COc1cccc(NC(=O)N2CCCC2C(=O)NCc2ccc(Cl)cc2)c1 (configuration not stated),inactive: -5.68%
12,Clc1ccc2c(NCCNC3CCCCC3)ccnc2c1,active: -83.6%
13,O=c1c2ccccc2nc(SCC2CCCCO2)n1-c1ccccc1 (configuration not stated),inconclusive: -42.6%
14,COCc1nc2cccnc2n1C1CCN(S(=O)(=O)N(C)C)CC1,inactive: 11.2%
15,CC(C)(C)NC(=O)NC(=O)COC(=O)CCC1CCCC1,inconclusive: -42.5%
16,CCC1([N+](=O)[O-])COP(N)(=O)OC1 (configuration not stated),inconclusive: -42.3%
17,Cc1ccnc(SCC(=O)c2cccc([N+](=O)[O-])c2)n1,inconclusive: -49.9%
18,COc1ccc(NC(=O)Nc2ccc(F)c(Cl)c2)cc1,inconclusive: -46.6%
19,COC(=O)[C@@H]1C[C@H]1[C@@H](NS(=O)(=O)c1ccccc1)c1ccccc1,inconclusive: -42.1%
20,O=C(O)CSc1cccc[n+]1[O-],inactive: -32.2%
21,CCOC(=O)N1CCN(CC(=O)N2c3ccccc3Sc3ccccc32)CC1,inconclusive: -54%

# In a second layout: entries from further up.
row | SMILES | activity change, negative = inhibition
2 | O=C(Cn1cc(S(=O)(=O)Cc2ccc(F)cc2)c2ccccc21)NCCc1ccccc1 | inconclusive: 0%
3 | CCOC(=O)c1ccc(NC(=O)CCc2c(C)nc3c(c(C)nn3-c3ccccc3)c2C)cc1 | inactive: -5.99%
4 | O=C(NCCc1c[nH]c2ccccc12)c1cncc(Br)c1 | inactive: 54.3%
5 | COc1ccc(CCNc2cc(C)nc3c(-c4ccc(Cl)cc4)cnn23)cc1OC | inactive: 34.2%
7 | COc1cccc(C2=C(C(C)=O)Sc3nncn3N2C(C)=O)c1 | inconclusive: -54.4%
8 | COc1cc(CNc2ccc3[nH]c(=O)[nH]c3c2)ccc1OCc1ccccc1Cl | inconclusive: -54.1%
10 | Cn1c(=O)c(C(=O)CSc2ccccc2)c(N)n(Cc2ccccc2)c1=O | inconclusive: -56.2%
11 | COc1cccc(NC(=O)N2CCCC2C(=O)NCc2ccc(Cl)cc2)c1 (configuration not stated) | inactive: -5.68%
12 | Clc1ccc2c(NCCNC3CCCCC3)ccnc2c1 | active: -83.6%
13 | O=c1c2ccccc2nc(SCC2CCCCO2)n1-c1ccccc1 (configuration not stated) | inconclusive: -42.6%
14 | COCc1nc2cccnc2n1C1CCN(S(=O)(=O)N(C)C)CC1 | inactive: 11.2%
15 | CC(C)(C)NC(=O)NC(=O)COC(=O)CCC1CCCC1 | inconclusive: -42.5%
16 | CCC1([N+](=O)[O-])COP(N)(=O)OC1 (configuration not stated) | inconclusive: -42.3%
17 | Cc1ccnc(SCC(=O)c2cccc([N+](=O)[O-])c2)n1 | inconclusive: -49.9%
18 | COc1ccc(NC(=O)Nc2ccc(F)c(Cl)c2)cc1 | inconclusive: -46.6%
19 | COC(=O)[C@@H]1C[C@H]1[C@@H](NS(=O)(=O)c1ccccc1)c1ccccc1 | inconclusive: -42.1%
